# The list shows a part of the results.
# B1: BT4246 (Bacteroides thetaiotaomicron), Q89ZX5 (protein)
# chain: MGSSHHHHHHENLYFQGHMASDYLDVVPPEQPNIDDAMSSPTRALGFLYSCYGGVSTDLPSAYLGEINSTTDEYVLPYSWNTDGYWGAYAFNTASSTNQDWLWGTTYQYIGQCYLFLQKLENAGSDIASDAEKEQWRAECQFLVAYYHFATLRRYGPIPITDSYIPMDTPTSEYNGRFHFDYCVDWIANQLDEAAKVLPANRTVTNEWGRATSTIAKAVKARLLLYAASPLWNGSFPYPNWQNENFETPGYGKALVSNTYDKSKWERALAACQEALTLATTSGDRELYDDDEYYSRQSLNLPFVPGVADVEDNKEFLKNVMKMRYAVSTRESEGNKEIIWGLSNQFDFYSRYPLRILKKSDGTWHAGYSGVSPTLYTFEHFYTANGKLPEKDLDFTPSSEWFESAGISSREDIIKLNVGREPRFYAWMAFDGGDYGTKFAAGSPLKLEMRNSEMHGYNPSLFNRDHSVTGFLTQKFVDPVTEFYTAGGSTSGTSAPTILFRLAELYLNVAECHAALGNTQEAIDALNPVRERAGIPKLTLADITNNMTIKDWVHNERFVELWNEGHRFFDVRRWAEGAKYFGANKREGLNAEVQSPTFEEFNKRTTVDAPYVWENRMYLNPVFYNEVYKNPQMVQAPGY
# Legend:
# Assay in all cases: glycan array binding signal (z-score within array); higher = stronger binding
# Conditions in all cases: glycan notation: IUPAC condensed, linker removed
# [1] = target: Gal3S(b1-3)[Fuc(a1-4)]GlcNAc
# In short: (§1)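 From the Consortium for Functional Glycomics database, 3228 arrays were curated, keeping only those whose protein sequence was available. Binding is given as a within-array Z-score averaged across arrays sharing a protein sequence and across linkers. Negative Z-scores can be read as non-binding.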
# Gal3S(b1-4)Glc = target: Gal3S(b1-4)Glc
# In short: as §1
# Gal3S(b1-4)Glc6S = target: Gal3S(b1-4)Glc6S
# In short: as §1
# Gal3S(b1-4)GlcNAc = target: Gal3S(b1-4)GlcNAc
# In short: as §1
# [2] = target: Gal3S(b1-4)[Fuc(a1-3)]Glc6S
# In short: as §1
# [3] = target: Gal3S(b1-4)[Fuc(a1-3)]GlcNAc
# In short: as §1
# [4] = target: Gal3S(b1-4)[Fuc(a1-3)]GlcNAc6S
# In short: as §1
# Gal3S4S(b1-4)GlcNAc = target: Gal3S4S(b1-4)GlcNAc
# In short: as §1
# Gal3S6S(b1-4)GlcNAc = target: Gal3S6S(b1-4)GlcNAc
# In short: as §1
# Gal3S6S(b1-4)GlcNAc6S = target: Gal3S6S(b1-4)GlcNAc6S
# In short: as §1
# Gal4S(b1-4)GlcNAc = target: Gal4S(b1-4)GlcNAc
# In short: as §1
# Gal4S6S(b1-4)GlcNAc = target: Gal4S6S(b1-4)GlcNAc
# In short: as §1
# Gal6P(b1-4)GlcNAc = target: Gal6P(b1-4)GlcNAc
# In short: as §1
# Gal6S(b1-3)GlcNAc = target: Gal6S(b1-3)GlcNAc
# In short: as §1
# Gal6S(b1-3)GlcNAc6S = target: Gal6S(b1-3)GlcNAc6S
# In short: as §1
# Gal6S(b1-4)Glc = target: Gal6S(b1-4)Glc
# In short: as §1
# Gal6S(b1-4)Glc6S = target: Gal6S(b1-4)Glc6S
# In short: as §1
# Gal6S(b1-4)GlcNAc = target: Gal6S(b1-4)GlcNAc
# In short: as §1
# Gal6S(b1-4)GlcNAc6S = target: Gal6S(b1-4)GlcNAc6S
# In short: as §1
# GalNAc(a1-3)Gal = target: GalNAc(a1-3)Gal
# In short: as §1
# GalNAc(a1-3)GalNAc = target: GalNAc(a1-3)GalNAc
# In short: as §1
# [5] = target: GalNAc(a1-3)GalNAc(b1-3)Gal(a1-4)Gal(b1-4)Glc
# In short: as §1
# [6] = target: GalNAc(a1-3)GalNAc(b1-3)Gal(a1-4)Gal(b1-4)GlcNAc
# In short: as §1
# GalNAc(b1-3)Gal = target: GalNAc(b1-3)Gal
# In short: as §1
# [7] = target: GalNAc(b1-3)Gal(a1-4)Gal(b1-4)GlcNAc
# In short: as §1
# [8] = target: GalNAc(b1-3)Gal(a1-4)Gal(b1-4)GlcNAc(b1-3)Gal(b1-4)Glc
# In short: as §1
# [9] = target: GalNAc(b1-3)Gal(a1-6)Gal(b1-4)Glc
# In short: as §1
# GalNAc(b1-3)GalNAc = target: GalNAc(b1-3)GalNAc
# In short: as §1
# GalNAc(b1-3)GlcNAc = target: GalNAc(b1-3)GlcNAc
# In short: as §1
# GalNAc(b1-4)Gal(b1-4)Glc = target: GalNAc(b1-4)Gal(b1-4)Glc
# In short: as §1
# GalNAc(b1-4)GlcNAc = target: GalNAc(b1-4)GlcNAc
# In short: as §1
# [10] = target: GalNAc(b1-4)GlcNAc(b1-2)Man
# In short: as §1
# [11] = target: GalNAc(b1-4)GlcNAc(b1-2)Man(a1-3)[GalNAc(b1-4)GlcNAc(b1-2)Man(a1-6)]Man(b1-4)GlcNAc(b1-4)GlcNAc
# In short: as §1
# [12] = target: GalNAc(b1-4)GlcNAc(b1-3)GalNAc(b1-4)GlcNAc
# In short: as §1
# GalNAc(b1-4)GlcNAc6S = target: GalNAc(b1-4)GlcNAc6S
# In short: as §1
# GalNAc(b1-6)GalNAc = target: GalNAc(b1-6)GalNAc
# In short: as §1
# GalNAc3S(b1-4)GlcNAc = target: GalNAc3S(b1-4)GlcNAc
# In short: as §1
# GalNAc3S(b1-4)GlcNAc3S = target: GalNAc3S(b1-4)GlcNAc3S
# In short: as §1
# [13] = target: GalNAc3S(b1-4)[Fuc(a1-3)]GlcNAc
# In short: as §1
# GalNAc4S6S(b1-4)GlcNAc = target: GalNAc4S6S(b1-4)GlcNAc
# In short: as §1
# GalNAc6S(b1-4)GlcNAc = target: GalNAc6S(b1-4)GlcNAc
# In short: as §1
# Glc(a1-4)Glc = target: Glc(a1-4)Glc
# In short: as §1
# [14] = target: Glc(a1-4)Glc(a1-4)Glc(a1-4)Glc
# In short: as §1
# Glc(a1-6)Glc(a1-6)Glc = target: Glc(a1-6)Glc(a1-6)Glc
# In short: as §1
# [15] = target: Glc(a1-6)Glc(a1-6)Glc(a1-6)Glc
# In short: as §1
# Glc(b1-4)Glc = target: Glc(b1-4)Glc
# In short: as §1
# Glc(b1-6)Glc = target: Glc(b1-6)Glc
# In short: as §1
# GlcA(b1-3)Gal = target: GlcA(b1-3)Gal
# In short: as §1
# GlcA(b1-3)GlcNAc = target: GlcA(b1-3)GlcNAc
# In short: as §1
# GlcA(b1-6)Gal = target: GlcA(b1-6)Gal
# In short: as §1
# [16] = target: GlcA3S(b1-3)Gal(b1-4)GlcNAc(b1-2)Man
# In short: as §1
# [17] = target: GlcA3S(b1-3)Gal(b1-4)GlcNAc(b1-3)Gal(b1-4)Glc
# In short: as §1
# [18] = target: GlcNAc(a1-3)Gal(b1-4)GlcNAc
# In short: as §1
# [19] = target: GlcNAc(a1-4)Gal(b1-3)GlcNAc
# In short: as §1
# [20] = target: GlcNAc(a1-4)Gal(b1-4)GalNAc
# In short: as §1
# [21] = target: GlcNAc(a1-4)Gal(b1-4)GlcNAc
# In short: as §1
# [22] = target: GlcNAc(a1-4)Gal(b1-4)GlcNAc(b1-3)Gal(b1-4)Glc
# In short: as §1
# [23] = target: GlcNAc(a1-4)Gal(b1-4)GlcNAc(b1-3)Gal(b1-4)GlcNAc
# In short: as §1
# [24] = target: GlcNAc(a1-4)Gal(b1-4)GlcNAc(b1-3)Gal(b1-4)GlcNAc(b1-3)Gal(b1-4)GlcNAc
# In short: as §1
# [25] = target: GlcNAc(a1-4)Gal(b1-4)GlcNAc(b1-3)Gal(b1-4)[Fuc(a1-3)]GlcNAc(b1-3)Gal(b1-4)[Fuc(a1-3)]GlcNAc
# In short: as §1
binder,measurement,setting,value
B1,glycan array binding signal (z-score),[1],-0.539
same,glycan array binding signal (z-score),Gal3S(b1-4)Glc,-0.648
same,glycan array binding signal (z-score),Gal3S(b1-4)Glc6S,-0.532
same,glycan array binding signal (z-score),Gal3S(b1-4)GlcNAc,0.273
same,glycan array binding signal (z-score),[2],0.805
same,glycan array binding signal (z-score),[3],0.943
same,glycan array binding signal (z-score),[4],-0.247
same,glycan array binding signal (z-score),Gal3S4S(b1-4)GlcNAc,1.89
same,glycan array binding signal (z-score),Gal3S6S(b1-4)GlcNAc,-0.837
same,glycan array binding signal (z-score),Gal3S6S(b1-4)GlcNAc6S,-1.17
same,glycan array binding signal (z-score),Gal4S(b1-4)GlcNAc,0.082
same,glycan array binding signal (z-score),Gal4S6S(b1-4)GlcNAc,0.27
same,glycan array binding signal (z-score),Gal6P(b1-4)GlcNAc,1.08
same,glycan array binding signal (z-score),Gal6S(b1-3)GlcNAc,0.765
same,glycan array binding signal (z-score),Gal6S(b1-3)GlcNAc6S,-0.574
same,glycan array binding signal (z-score),Gal6S(b1-4)Glc,1.17
same,glycan array binding signal (z-score),Gal6S(b1-4)Glc6S,0.309
same,glycan array binding signal (z-score),Gal6S(b1-4)GlcNAc,-0.871
same,glycan array binding signal (z-score),Gal6S(b1-4)GlcNAc6S,-1
same,glycan array binding signal (z-score),GalNAc(a1-3)Gal,0.339
same,glycan array binding signal (z-score),GalNAc(a1-3)GalNAc,-0.002
same,glycan array binding signal (z-score),[5],-0.376
same,glycan array binding signal (z-score),[6],1
same,glycan array binding signal (z-score),GalNAc(b1-3)Gal,-0.284
same,glycan array binding signal (z-score),[7],-0.469
same,glycan array binding signal (z-score),[8],0.401
same,glycan array binding signal (z-score),[9],-1.14
same,glycan array binding signal (z-score),GalNAc(b1-3)GalNAc,-0.538
same,glycan array binding signal (z-score),GalNAc(b1-3)GlcNAc,1.7
same,glycan array binding signal (z-score),GalNAc(b1-4)Gal(b1-4)Glc,-0.832
same,glycan array binding signal (z-score),GalNAc(b1-4)GlcNAc,0.187
same,glycan array binding signal (z-score),[10],-0.775
same,glycan array binding signal (z-score),[11],-0.395
same,glycan array binding signal (z-score),[12],-0.141
same,glycan array binding signal (z-score),GalNAc(b1-4)GlcNAc6S,-0.616
same,glycan array binding signal (z-score),GalNAc(b1-6)GalNAc,0.406
same,glycan array binding signal (z-score),GalNAc3S(b1-4)GlcNAc,1.88
same,glycan array binding signal (z-score),GalNAc3S(b1-4)GlcNAc3S,-0.1
same,glycan array binding signal (z-score),[13],-1.91
same,glycan array binding signal (z-score),GalNAc4S6S(b1-4)GlcNAc,-0.012
same,glycan array binding signal (z-score),GalNAc6S(b1-4)GlcNAc,-0.344
same,glycan array binding signal (z-score),Glc(a1-4)Glc,1.34
same,glycan array binding signal (z-score),[14],-1.03
same,glycan array binding signal (z-score),Glc(a1-6)Glc(a1-6)Glc,-0.593
same,glycan array binding signal (z-score),[15],-0.919
same,glycan array binding signal (z-score),Glc(b1-4)Glc,-0.822
same,glycan array binding signal (z-score),Glc(b1-6)Glc,-2.27
same,glycan array binding signal (z-score),GlcA(b1-3)Gal,-0.824
same,glycan array binding signal (z-score),GlcA(b1-3)GlcNAc,-0.525
same,glycan array binding signal (z-score),GlcA(b1-6)Gal,-0.398
same,glycan array binding signal (z-score),[16],0.008
same,glycan array binding signal (z-score),[17],-0.356
same,glycan array binding signal (z-score),[18],-1.44
same,glycan array binding signal (z-score),[19],0.164
same,glycan array binding signal (z-score),[20],1.53
same,glycan array binding signal (z-score),[21],-0.735
same,glycan array binding signal (z-score),[22],-0.344
same,glycan array binding signal (z-score),[23],-0.394
same,glycan array binding signal (z-score),[24],-0.441
same,glycan array binding signal (z-score),[25],3.11

# 2 entries from above in a different format:
binder | measurement | setting | value
B1 | glycan array binding signal (z-score) | [3] | 0.943
same | glycan array binding signal (z-score) | [4] | -0.247
